Assay [1] concerns the target human Galectin-3 (Gal3), full-length recombinant (human) (UniProt P17931). Nature of the assay: ELISA: Gal3 coated at 3 µg/ml, receptor at 3 µg/ml, anti-human IgG-HRP, A450. Background: In an ELISA, binding on a coated surface is turned into a signal by an enzyme label.
Assay [2] shares this target. Nature of the assay: ELISA, Gal3 coated, receptor-Fc 3 µg/ml.

Amino acid sequences for entries named in this document (tags omitted). A change or cut given only in a name is not applied to a line headed by its entry.
UniProt P17931: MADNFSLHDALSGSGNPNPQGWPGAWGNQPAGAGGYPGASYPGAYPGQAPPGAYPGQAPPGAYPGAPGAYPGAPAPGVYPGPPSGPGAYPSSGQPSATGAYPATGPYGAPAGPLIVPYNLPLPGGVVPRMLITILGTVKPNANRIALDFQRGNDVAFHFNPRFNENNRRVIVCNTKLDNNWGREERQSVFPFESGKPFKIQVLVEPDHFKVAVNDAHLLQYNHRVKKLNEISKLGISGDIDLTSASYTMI

These are yes or no findings as the source states them, for the method shown. Some entries that bind do so weakly or less than the wild type. Tags and fused reporters may be left off the sequences shown.

The source of these data is patent publication US20250145722A1, “ANTI-GAL3 ANTIBODIES AND METHODS OF USE” (TrueBinding, Inc., priority 2020, published 2025).

B1: recombinant human TGF-beta RI/ALK-5 Fc chimera protein (R&D Systems, 3025-BR) (Fc fusion, UniProt P36897 24-125, looked up, not shown: a dimerising Fc or GST)
chain: AAALLPGATALQCFCHLCTKDNFTCVTDGLCFVSVTETTDKVIHNSMCIAEIDLIPRDRPFVCAPSSKTGSVTTTYCCNQDHCNKIELPTTVKSSPGLGPVE
Consider B1, for which the binding entry in assay [1] and in assay [2] was “binds” each time.
